Data reported in PMC5871684.
Results are given in words; binding and its absence hold for the method and conditions named. Binding calls can cover weak binding; strength is not graded here. Tags and fused reporters may be left off the sequences shown.

Molecular target: T1, TOPLESS (TPL) fused with GAL4 DNA binding domain (Arabidopsis thaliana) (UniProt Q94AI7)
T1 sequence: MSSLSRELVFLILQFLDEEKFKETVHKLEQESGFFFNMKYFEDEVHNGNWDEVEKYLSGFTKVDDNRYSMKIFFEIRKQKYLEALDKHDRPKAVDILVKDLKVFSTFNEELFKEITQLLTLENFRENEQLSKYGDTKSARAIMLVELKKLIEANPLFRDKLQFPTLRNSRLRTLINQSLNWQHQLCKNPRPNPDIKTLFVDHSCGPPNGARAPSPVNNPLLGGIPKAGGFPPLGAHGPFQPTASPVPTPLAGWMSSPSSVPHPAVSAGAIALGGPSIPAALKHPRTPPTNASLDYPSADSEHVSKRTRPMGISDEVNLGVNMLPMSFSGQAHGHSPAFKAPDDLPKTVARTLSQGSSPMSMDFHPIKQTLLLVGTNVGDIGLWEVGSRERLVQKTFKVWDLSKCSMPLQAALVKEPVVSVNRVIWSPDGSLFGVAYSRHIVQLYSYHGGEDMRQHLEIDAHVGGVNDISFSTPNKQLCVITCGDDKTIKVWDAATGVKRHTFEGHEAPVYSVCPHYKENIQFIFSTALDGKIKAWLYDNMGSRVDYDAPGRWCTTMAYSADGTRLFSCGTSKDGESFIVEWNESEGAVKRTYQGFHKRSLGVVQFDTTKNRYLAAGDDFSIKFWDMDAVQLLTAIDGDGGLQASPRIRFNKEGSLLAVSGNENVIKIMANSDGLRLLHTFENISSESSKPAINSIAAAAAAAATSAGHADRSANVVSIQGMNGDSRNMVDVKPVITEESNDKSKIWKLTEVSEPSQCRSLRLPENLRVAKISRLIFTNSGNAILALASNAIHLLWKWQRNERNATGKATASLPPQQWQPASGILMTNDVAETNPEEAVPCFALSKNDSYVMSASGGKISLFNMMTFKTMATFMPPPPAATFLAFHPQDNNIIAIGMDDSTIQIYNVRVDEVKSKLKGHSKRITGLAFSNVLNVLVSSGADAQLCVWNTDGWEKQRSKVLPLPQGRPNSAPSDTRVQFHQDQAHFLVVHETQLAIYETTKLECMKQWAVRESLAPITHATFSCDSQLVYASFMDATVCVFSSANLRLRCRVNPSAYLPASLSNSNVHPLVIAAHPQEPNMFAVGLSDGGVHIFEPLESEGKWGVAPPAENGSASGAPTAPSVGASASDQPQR
Assay: two-hybrid; Matchmaker system, yeast AH109, co-transformation; TPL fused with GAL4-BD, ARF2 full length, domains or mutated MDs fused with GAL4-AD; serial 1:10 dilutions on SD2-, SD3- (0.2-0.5 mM 3-amino-triazole) or SD4-, 30°C, growth observed 4-10 days after plating

Row | binding | Substance
1 | binds | ARF2 middle domain with the EAR motif mutation (MDma) fused with GAL4 activation domain (Arabidopsis thaliana) (domain or fragment)
2 | no binding | ARF2 middle domain with the RLFGI motif mutation (MDmb) fused with GAL4 activation domain (Arabidopsis thaliana) (domain or fragment)
